# Measurements taken from article PMC4830977 (Scientific Reports, 2016).
# Chains of the proteins cited; added tags and fusions are not shown. Lines headed by an entry give the natural chain unless they say otherwise; changes in a name come on top. Residues count along the entry.
# UniProt P35443, residues 286-462: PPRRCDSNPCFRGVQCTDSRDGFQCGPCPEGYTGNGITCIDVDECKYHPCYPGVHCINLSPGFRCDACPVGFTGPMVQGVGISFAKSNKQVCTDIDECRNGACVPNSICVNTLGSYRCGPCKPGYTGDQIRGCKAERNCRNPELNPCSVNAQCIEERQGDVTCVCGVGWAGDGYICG
# UniProt P54290, residues 25-1091: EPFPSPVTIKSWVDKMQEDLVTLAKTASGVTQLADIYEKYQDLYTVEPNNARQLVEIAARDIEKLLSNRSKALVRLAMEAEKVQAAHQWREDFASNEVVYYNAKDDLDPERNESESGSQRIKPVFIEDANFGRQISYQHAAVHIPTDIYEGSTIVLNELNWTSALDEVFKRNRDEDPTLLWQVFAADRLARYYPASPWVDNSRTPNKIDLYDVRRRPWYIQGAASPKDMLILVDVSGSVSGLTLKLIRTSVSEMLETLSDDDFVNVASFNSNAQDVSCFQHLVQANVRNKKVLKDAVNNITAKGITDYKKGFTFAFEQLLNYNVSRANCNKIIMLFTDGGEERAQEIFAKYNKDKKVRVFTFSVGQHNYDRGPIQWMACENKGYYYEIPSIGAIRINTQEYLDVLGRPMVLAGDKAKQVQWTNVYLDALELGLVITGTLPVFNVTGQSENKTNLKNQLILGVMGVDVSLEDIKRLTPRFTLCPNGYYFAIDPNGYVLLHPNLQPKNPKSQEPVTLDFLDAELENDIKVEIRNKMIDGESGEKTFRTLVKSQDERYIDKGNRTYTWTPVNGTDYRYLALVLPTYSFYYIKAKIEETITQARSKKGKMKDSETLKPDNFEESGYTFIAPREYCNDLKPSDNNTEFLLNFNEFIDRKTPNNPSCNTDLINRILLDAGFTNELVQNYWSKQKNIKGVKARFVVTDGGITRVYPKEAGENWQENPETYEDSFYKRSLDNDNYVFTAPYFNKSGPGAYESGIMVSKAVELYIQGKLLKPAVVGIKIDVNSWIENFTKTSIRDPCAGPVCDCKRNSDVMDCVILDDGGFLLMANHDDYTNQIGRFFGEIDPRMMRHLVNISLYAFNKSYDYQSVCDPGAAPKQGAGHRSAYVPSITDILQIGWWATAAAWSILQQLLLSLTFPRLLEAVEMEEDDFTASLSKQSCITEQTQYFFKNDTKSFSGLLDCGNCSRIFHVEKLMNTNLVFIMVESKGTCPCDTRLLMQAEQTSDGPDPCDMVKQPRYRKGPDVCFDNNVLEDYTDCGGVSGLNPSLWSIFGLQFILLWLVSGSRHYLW
# Results are given in words; binding and its absence hold for the method and conditions named. Binding seen in cells or lysates may run through a third protein.
# Target: thrombospondin-4 EGF domain construct, C-terminal HA tag (TSP4-EGF_HA) (human) (UniProt P35443)
# Experiment: co-IP; tsA-201 cells co-transfected with α2δ-1 construct and TSP4_HA construct; whole cell lysate (1 mg protein) incubated overnight at 4 °C with 5 μg/ml rabbit anti-HA antibody, Protein-G or Protein-A/G-PLUS agarose; blot for α2δ-1
substance,measurement,value
calcium channel α2δ-1 subunit (wild type) (from UniProt P54290 25-1091),binding,no binding
